# Assay results from PubChem BioAssay AID1439 (NMMLSC, 2008).
# The chains behind the UniProt entries cited, without tags or fusion partners.
# UniProt P09471, whole entry, looked up: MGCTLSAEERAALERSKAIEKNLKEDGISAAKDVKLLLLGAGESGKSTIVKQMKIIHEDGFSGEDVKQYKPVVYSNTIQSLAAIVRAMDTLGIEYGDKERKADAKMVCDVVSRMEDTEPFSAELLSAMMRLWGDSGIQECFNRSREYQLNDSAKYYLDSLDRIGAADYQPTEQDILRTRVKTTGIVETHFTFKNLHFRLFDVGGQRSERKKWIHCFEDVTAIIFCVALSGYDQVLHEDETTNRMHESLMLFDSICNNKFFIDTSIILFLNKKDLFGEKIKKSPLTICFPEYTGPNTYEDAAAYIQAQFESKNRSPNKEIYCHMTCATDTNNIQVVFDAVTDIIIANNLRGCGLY
# Hit rate of the full screen: of about 220,000 compounds, about 770 (0.35%) were called active. The inconclusive results got no clear call from the source; some entries with a clear call stand among them for comparison. Cut-off read from the data, not from the text of the source: active = binding response below about 49% or above about 150%; inconclusive = no clear call, values can overlap the other calls; inactive = in between.
# Target: Guanine nucleotide-binding protein G(o) subunit alpha (Homo sapiens) (UniProt P09471)
# Assay: RGS7-Galphao binding modulators, primary screen, biochemical, multiplexed bead flow cytometry (AID 1439);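 note: fluorescent Galphao held in activated GDP-AlF4 state binding bead-coupled RGS7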
# Settings: at 10 µM, actives lie on both sides
row,Compound,binding response (% of control)
1,COc1ccc(CNc2c(CO)cnc3c2cnn3C)cc1,inconclusive: 87.1%
2,Cc1cc(C)cc(NC(=O)CCn2cnc3cc(C)c(C)cc32)c1,inactive: 111%
3,COc1ccc(-c2nc(C=O)cs2)cc1,inconclusive: 58.2%
4,CC(=O)C1=C(C)NC(=O)NC1c1ccc(Cl)cc1 (stereo not drawn),inactive: 93.3%
5,Cc1cc(C)n(S(=O)(=O)c2ccccc2)n1,inconclusive: 61%
6,O=c1[nH]nc(-c2ccc(F)cc2)cc1Cc1ccccn1,inconclusive: 97.7%
7,Cc1nn(CCCC(=O)Nc2cnn(Cc3ccc(F)cc3)c2)c(C)c1[N+](=O)[O-],inconclusive: 123%
8,CCCS(=O)(=O)N1CCC(C(=O)N2CCC(Cc3ccccc3)CC2)CC1,inactive: 99.7%
9,COc1ccc(/C(C)=N/NC(=S)NCCc2ccccc2)cc1,inconclusive: 100%
10,CN(C)NC(=S)Nc1ccc(S(=O)(=O)N2CCCCC2)cc1,inconclusive: 87.6%
11,COC(=O)c1ccc(C23CC4(C2)[C@H](CN(Cc2ccc(C(F)(F)F)cc2)[C@@H]4c2ccccc2)C3c2ccc(Cl)nc2)cc1 (stereo partly drawn),inconclusive: 99.2%
12,CN1C(=O)CSc2ccc(NC(=O)N3CCC(N4CCCCC4)CC3)cc21,inactive: 110%
13,O=C(O)c1ccc(S(=O)(=O)c2ccc3c(c2)C(=O)N(NC(=O)c2ccc(O)cc2)C3=O)cc1,inconclusive: 136%
14,C=CCNc1nc(Nc2ccccc2F)nc(OCC)n1,inactive: 95%
15,CCC1CCC2(CC1)NC(CO)(CO)CO2 (stereo not drawn),inactive: 119%
16,COc1ccc(C(=O)Nc2ccc(N3CCOCC3)cc2)cc1OC,inactive: 129%
17,O=C(/C=C/c1ccccc1Cl)Nn1cnc2ccccc2c1=O,inactive: 105%
18,O=C(CC1NCCN(Cc2ccccc2)C1=O)Nc1ccccc1 (stereo not drawn),inconclusive: 83%
19,Cc1ccc(C(=O)NCc2ccccc2)c(F)c1F,inconclusive: 115%
20,COc1ccc(N=Nc2ccc(O)c3ncccc23)cc1,inconclusive: 48.6%
21,COCCN(CCOC)S(=O)(=O)c1ccc(Cl)nc1,inconclusive: 129%
22,O=C(/C=C/c1ccccc1)Nc1ccc(Br)cn1,inconclusive: 96.7%
23,CC(=O)Nc1nc2ccccc2n1Cc1ccc(Cl)cc1,inconclusive: 101%
24,O=C(NCc1csc(-c2ccccc2)n1)c1cc(F)cc2c1OCOC2,inconclusive: 84.3%

row,Compound,binding response (% of control)
1,CCn1c(SCC(=O)NNC(=O)c2ccc(OC)cc2)nnc1-c1cccnc1,inconclusive: 101%
2,Cc1c(N2C(=O)/C(=C/C3CC=CCC3)SC2=S)c(=O)n(-c2ccccc2)n1C (stereo not drawn),inconclusive: 113%
3,O=C(O)c1cc(NN=Nc2ccc(Br)cc2)cc([N+](=O)[O-])c1,inconclusive: 120%
4,C/C(=N\OCC(=O)Nc1ccc(Br)cc1)c1cccs1,inconclusive: 108%
5,N#CCC(=O)N/N=C/c1cn(Cc2ccccc2C#N)c2ccccc12,inconclusive: 130%
6,COc1ccccc1N1CCN(C(=O)c2c(C)noc2C)CC1,inconclusive: 104%
7,NS(=O)(=O)c1ccc(CCNC(=O)CSc2ccc3ccccc3c2)cc1,inconclusive: 95.6%
8,CC(C)(C)[C@H]1C=C(C(=O)NCc2nc3ccccc3[nH]2)O[C@@H](OCc2ccc(CO)cc2)C1,inconclusive: 90.9%
9,CC1(C(=O)N2CCN(c3ccccc3)CC2)CC1(Cl)Cl (stereo not drawn),inconclusive: 85.3%
10,CCOC(=O)Cc1nc(-c2ccc(Cl)cc2)n[nH]1,inconclusive: 87.6%
11,O=C1C(=O)c2ccc(-c3ccccc3)cc2-c2ccccc21,inactive: 112%
12,O=C(NC(=S)NNC(=O)c1cnccn1)c1ccc(Cl)cc1,inconclusive: 109%
13,C=CCn1c(SCc2nc3sc(C(=O)O)c(C)c3c(=O)[nH]2)nnc1-c1ccc(C(C)(C)C)cc1,inconclusive: 127%
14,C=CCN(C(=O)c1ccc(Cl)cc1)c1ccccc1C(=O)NCC(=O)O,inconclusive: 98.2%
15,O=C(CCN1CCN(c2ccc(F)cc2)CC1)Nc1ccccc1F,inactive: 98.5%
16,O=C(N/N=C/C=C\c1cccc([N+](=O)[O-])c1)c1cccnc1,inconclusive: 93.6%
17,CCCn1nc(NC(=O)c2cccs2)c2cc3cc(C)ccc3nc21,inconclusive: 99.5%
18,COC(=O)/C(=C\C(=O)c1ccc([N+](=O)[O-])cc1)Nc1ccc(OC)cc1,inconclusive: 109%
19,O=C(NC(=O)c1c(F)cccc1F)Nc1ccccc1SC(F)F,inconclusive: 94.7%
20,Cc1cc(C(=O)CSc2nnc(-c3cccnc3)n2-c2ccccc2F)c(C)n1CC1CCCO1 (stereo not drawn),inactive: 95.8%
21,CCCc1c(C(=O)Nc2cc(C(C)(C)C)on2)cnn1-c1ccccc1,inconclusive: 161%
22,NNC(=S)NCc1ccccc1,inconclusive: 239%
23,COc1ccc(CC(=O)N/N=C/c2ccc(-c3cccc(C(=O)O)c3)o2)cc1OC,inconclusive: 112%
24,CCC(=O)c1cc(F)ccc1OCC(=O)N1CCN(c2ccc(F)cc2)CC1,inconclusive: 95.6%

# Copied from the list.
# C/C(=N\OCC(=O)Nc1ccc(Br)cc1)c1cccs1 – binding response (% of control): inconclusive: 108%
# CCC(=O)c1cc(F)ccc1OCC(=O)N1CCN(c2ccc(F)cc2)CC1 – binding response (% of control): inconclusive: 95.6%
# C=CCN(C(=O)c1ccc(Cl)cc1)c1ccccc1C(=O)NCC(=O)O – binding response (% of control): inconclusive: 98.2%
# CC1(C(=O)N2CCN(c3ccccc3)CC2)CC1(Cl)Cl (stereo not drawn) – binding response (% of control): inconclusive: 85.3%

# Carrying on:

row,Compound,binding response (% of control)
1,O=C(O)COc1ccccc1/C=N/NC(=O)c1cc(-c2ccc(Cl)cc2)nc2ccccc12,inconclusive: 93.6%
2,Cc1cc(NC(=O)c2cc(-c3cccs3)nc3ccccc23)no1,active: 256% [activator]
3,C=CCNC(=S)NN=C1CCCCCCC1,inactive: 103%
4,S=C(Nc1ccc(Cc2ccncc2)cc1)Nc1cccc(Cl)c1,inconclusive: 93.6%
5,O=C(COc1ccc(Cl)cc1)c1ccc(O)cc1O,inconclusive: 93%
6,Fc1ccc(NC(=S)N2CCN(c3ncccn3)CC2)cc1,inconclusive: 89.9%
7,Cc1ccc(N=C2NC(=O)/C(=C/c3cccn3C)S2)cc1C,inconclusive: 445%
8,O=C(N/N=C/c1cccnc1)c1ccc(S(=O)(=O)N2CCCCCC2)cc1,inconclusive: 76.8%
9,CCCCNS(=O)(=O)c1ccc2nc(-c3cccnc3)cc(C(=O)NCCOC)c2c1,inconclusive: 121%
10,O=C(Nc1cc(S(=O)(=O)Nc2ccccc2Cl)ccc1O)c1cc2c(s1)CCCC2,inconclusive: 102%
11,Cc1cc(=O)oc2cc(OCC(=O)OCC(=O)Nc3ccc(C(N)=O)cc3)ccc12,inconclusive: 84.9%
12,Nn1c(SCc2cc([N+](=O)[O-])cc3c2OCOC3)nnc1-c1cccnc1,inconclusive: 202%
13,O=C(CNS(=O)(=O)c1cccs1)NCc1ccc(F)cc1,inconclusive: 85.1%
14,CCOC(=O)C1CCN(C(=O)Nc2ccc(OC(F)(F)F)cc2)CC1,inconclusive: 111%
15,CCCCC1=CC2=C(c3ccco3)C(=O)C(C)(OC(=O)c3ccc(OC)cc3)C(=O)C2=CN1C(CO)CO (stereo not drawn),inconclusive: 99.9%
16,COc1ccc(-c2noc(CN(C)Cc3ccc(C)o3)n2)cc1,inactive: 98.1%
17,CCCSCCCNC(=O)Cn1cc2c(n1)CCCCC2,active: 43.2%
18,O=C(CCl)N(c1ccccc1)C1CCCCC1,inactive: 104%
19,C=CCn1c(SCC(=O)Nc2nc3ccccc3s2)nc(O)c(CC)c1=O,inconclusive: 94.8%
20,CCCC(=O)Nc1nnc(SCC(=O)NCc2ccc3c(c2)OCO3)s1,inconclusive: 103%
21,Cc1ccc(/C=N/NC(=O)CC(=O)NCc2cccnc2)cc1,inactive: 101%
22,O=C(COC(=O)c1ccc(F)c(S(=O)(=O)N2CCCCC2)c1)NCc1ccc(F)cc1,inactive: 101%
23,Cc1cc(C(=O)NNc2ccc(C(C)C)cc2)n(C(C)(C)C)n1,inconclusive: 98.2%
24,CCCN1C(=O)/C(=C/c2nc3ccccc3c(=O)[nH]2)c2cc(C)ccc21,inconclusive: -165%

row,Compound,binding response (% of control)
1,O=C(NC(=S)Nc1ccccn1)c1cccc([N+](=O)[O-])c1,inconclusive: 114%
2,CCN(CC)C(=O)CSc1nc(-c2ccccc2)ccc1C#N,inconclusive: 113%
3,O=C(Nc1cc(Br)ccc1O)c1cnn2c(C(F)F)cc(C3CC3)nc12,inconclusive: 117%
4,O=[N+]([O-])c1ccc(N2CCOCC2)c(S(=O)(=O)N2CCOCC2)c1,inactive: 102%
5,Cc1cc(Br)ccc1NC(=S)N1CCOCC1,inconclusive: 91.1%
6,CC(C)c1ccc(C(=O)NC(=S)Nc2ccc3[nH]c(=O)[nH]c3c2)cc1,inconclusive: 146%
7,CC(OCCN(C)C)C(=O)C12CC3CC(CC(C3)C1)C2 (stereo not drawn),inconclusive: 120%
8,COc1ccccc1NC(=O)COn1nnc2ccc(S(=O)(=O)N3CCOCC3)cc21,inactive: 105%
9,Cc1ccccc1NNC(N)=S,inconclusive: 108%
10,C=CCN(Cc1nc(-c2cc(OC)ccc2OC)oc1C)C1CCS(=O)(=O)C1 (stereo not drawn),inactive: 96.3%
11,CC(C)CC(=O)Nc1ccc(-c2nnn(CC(=O)NCc3ccco3)n2)cc1,inactive: 95.1%
12,CC1(C)c2ccccc2-c2nc3ccccc3cc2C1O (stereo not drawn),inconclusive: 143%
13,CC(=O)Nc1ccc(Sc2ccccc2C(=O)O)c(C(=O)O)c1,inconclusive: 123%
14,CCC(C)NC(=O)c1ccccc1SC (stereo not drawn),inconclusive: 119%
15,Cc1cc(NC(=O)CCC(=O)N(c2ccc(F)cc2)C(C(=O)NC2CCCC2)c2ccncc2)no1 (stereo not drawn),inactive: 92.1%
16,CC(C)(C)CC(=O)NCCCN1CCOCC1,inconclusive: 103%
17,CS(=O)(=O)NCCCNc1ccc(C(F)(F)F)cc1[N+](=O)[O-],inconclusive: 109%
18,N#Cc1ccc(N2Cc3ccccc3C2=NC(=O)c2cccnc2Cl)cc1,inactive: 100%
19,Nn1c(SCc2cccc(F)c2)nnc1-c1cccnc1,inconclusive: -4.49%
20,CC(=O)Nc1ccc(N2CC(C)(C)C2=O)cc1,inactive: 105%
21,CCCn1ncc(/C=N/O)c1C,inconclusive: 88.2%
